The values below are quoted from earlier work in patent publication US20070198063A1, “Electrical devices and anti-scarring drug combinations” (priority 2005, published 2007).

For series [1] the following is noted: 200 mg/day orally; cited from earlier work.
For series [2] the following is noted: steroid combined with a subtherapeutic dose of an azole; steroid at 5 mg/day with 100 mg ketoconazole; cited from earlier work.

Take `CC(=O)N1CCN(c2ccc(OC[C@@H]3CO[C@@](Cn4ccnc4)(c4ccc(Cl)cc4Cl)O3)cc2)CC1` (racemic) [ketoconazole]: in series [1], the serum concentration result is “about 3.2 micrograms”. Besides, in series [2], the “enhancement of the steroid activity / potency” value is 10 fold.
